Laboratory results as given in doi:10.1101/2024.11.25.625323.
These are yes or no findings as the source states them, for the method shown. In cells and extracts the contact can be indirect. Some binding calls cover weakened binding; strength is not graded here.

Amino acid sequences for entries named in this document (tags omitted).
UniProt Q15797: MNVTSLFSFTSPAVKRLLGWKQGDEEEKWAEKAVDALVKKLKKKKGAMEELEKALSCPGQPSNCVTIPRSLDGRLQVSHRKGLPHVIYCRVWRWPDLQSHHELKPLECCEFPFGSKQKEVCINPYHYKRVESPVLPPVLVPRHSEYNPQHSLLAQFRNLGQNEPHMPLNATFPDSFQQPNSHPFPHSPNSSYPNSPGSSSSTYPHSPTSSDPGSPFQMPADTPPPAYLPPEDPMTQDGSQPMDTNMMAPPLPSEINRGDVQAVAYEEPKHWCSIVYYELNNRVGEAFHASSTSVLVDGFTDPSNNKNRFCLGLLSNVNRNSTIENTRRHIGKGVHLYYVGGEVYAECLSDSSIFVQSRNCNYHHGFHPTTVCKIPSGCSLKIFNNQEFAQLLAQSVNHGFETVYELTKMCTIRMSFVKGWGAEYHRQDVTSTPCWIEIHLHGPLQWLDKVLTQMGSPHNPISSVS
UniProt Q12778: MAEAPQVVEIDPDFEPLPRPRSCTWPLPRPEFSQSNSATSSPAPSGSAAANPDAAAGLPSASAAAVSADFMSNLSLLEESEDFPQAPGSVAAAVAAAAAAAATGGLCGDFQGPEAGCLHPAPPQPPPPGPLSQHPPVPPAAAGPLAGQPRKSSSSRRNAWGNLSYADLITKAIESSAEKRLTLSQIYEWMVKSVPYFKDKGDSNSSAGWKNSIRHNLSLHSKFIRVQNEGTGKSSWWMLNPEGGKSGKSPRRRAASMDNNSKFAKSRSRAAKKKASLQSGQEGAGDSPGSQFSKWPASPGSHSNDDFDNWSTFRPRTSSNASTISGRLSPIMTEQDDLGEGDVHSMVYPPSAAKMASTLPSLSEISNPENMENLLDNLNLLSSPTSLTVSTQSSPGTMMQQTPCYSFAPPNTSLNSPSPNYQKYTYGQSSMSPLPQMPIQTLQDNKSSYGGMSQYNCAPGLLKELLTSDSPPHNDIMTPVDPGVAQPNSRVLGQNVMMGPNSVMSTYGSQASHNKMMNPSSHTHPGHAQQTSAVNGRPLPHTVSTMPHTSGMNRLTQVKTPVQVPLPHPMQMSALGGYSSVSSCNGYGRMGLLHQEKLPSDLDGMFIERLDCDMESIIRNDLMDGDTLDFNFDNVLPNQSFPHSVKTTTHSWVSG

Columns and labels:
[1] = target: SMAD1 (human (endogenous in HAoECs)) (UniProt Q15797); assay: proximity ligation
[2] = target: SMAD1 (human (endogenous in HAoECs)) (UniProt Q15797); assay: co-IP

binding [1]: binds
binding [2]: binds
Substance: FOXO1 (Forkhead Box O1) (from UniProt Q12778 1-655)
